Measured values from US20180195054A1 (Stanford University, published 2018).
Results are given in words; binding and its absence hold for the method and conditions named. Some results given as binding are weak or reduced against the parent protein; the word gives no strength. For part of these data: Sequences can lack the tags named with a protein. One block for each binder: values may come before it.

Assays:
[1] = target: T1, mouse CD47 displayed on the surface of yeast (mouse) (UniProt Q61735); assay: flow cytometry on yeast displaying mouse CD47, competition with wild-type mouse SIRPα tetramers
T1 sequence (looked up): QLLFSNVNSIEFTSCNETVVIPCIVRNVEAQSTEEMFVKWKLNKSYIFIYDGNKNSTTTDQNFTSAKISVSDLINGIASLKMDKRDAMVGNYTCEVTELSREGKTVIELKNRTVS

[2] = target: T1, mouse CD47 displayed on the surface of yeast (mouse); assay: staining of yeast displaying mouse CD47 (FIG. 17C)
[3] = target: T1, mouse CD47 displayed on the surface of yeast (mouse); assay: flow cytometry on yeast displaying mouse CD47

binding [1]: binds
B1: FD6-hIgG4 (FD6 d1 domain fused to hinge, CH2 and CH3 of human IgG4) (Fc fusion)
chain: EEEVQIIQPDKSVSVAAGESAILHCTITSLFPVGPIQWFRGAGPARVLIYNQRQGPFPRVTTISETTRRENMDFSISISNITPADAGTYYCIKFRKGSPDTEFKSGAGTELSVRAKPSAAAPPCPPCPAPEFLGGPSVFLFPPKPKDTLMISRTPEVTCVVVDVSQEDPEVQFNWYVDGVEVHNAKTKPREEQFNSTYRVVSVLTVLHQDWLNGKEYKCKVSNKGLPSSIEKTISKAKGQPREPQVYTLPPSQEEMTKNQVSLTCLVKGFYPSDIAVEWESNGQPENNYKTTPPVLDSDGSFFLYSRLTVDKSRWQEGNVFSCSVMHEALHNHYTQKSLSLSPGK
notes: also called FD6-hlgG4; FD-hlgG4

binding [2]: binds
binding [3]: binds
B2: high-affinity SIRPα variant CV1 monomer (consensus variant 1, d1 domain) (designed binder)
chain: EEELQIIQPDKSVLVAAGETATLRCTITSLFPVGPIQWFRGAGPGRVLIYNQRQGPFPRVTTVSDTTKRNNMDFSIRIGNITPADAGTYYCIKFRKGSPDDVEFKSGAGTELSVRAKPSHHHHHHHH
notes: Nine consensus substitutions grafted onto wild-type SIRPα allele 2
